Results reported in PMC12860897.

Chains of the proteins cited; added tags and fusions are not shown.
UniProt P19785: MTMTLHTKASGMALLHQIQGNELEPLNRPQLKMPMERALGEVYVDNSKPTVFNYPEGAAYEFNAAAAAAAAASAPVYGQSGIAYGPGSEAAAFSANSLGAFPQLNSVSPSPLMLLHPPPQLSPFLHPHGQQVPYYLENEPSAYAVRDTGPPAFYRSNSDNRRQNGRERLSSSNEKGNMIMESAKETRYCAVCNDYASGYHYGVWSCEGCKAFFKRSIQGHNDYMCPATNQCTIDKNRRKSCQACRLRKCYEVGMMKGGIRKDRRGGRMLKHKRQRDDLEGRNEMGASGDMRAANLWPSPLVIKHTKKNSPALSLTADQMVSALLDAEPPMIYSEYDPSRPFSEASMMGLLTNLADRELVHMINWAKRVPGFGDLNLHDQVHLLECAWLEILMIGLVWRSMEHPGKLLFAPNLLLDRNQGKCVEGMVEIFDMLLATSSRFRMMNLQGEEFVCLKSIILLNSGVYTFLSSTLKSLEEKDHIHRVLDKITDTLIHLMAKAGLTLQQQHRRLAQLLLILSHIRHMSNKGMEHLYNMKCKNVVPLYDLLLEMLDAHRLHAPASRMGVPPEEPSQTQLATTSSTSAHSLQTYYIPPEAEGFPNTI

Target: Estrogen receptor (ER) α, endogenous in mouse CD11b+ bone marrow cells (mouse (endogenous in CD11b+ BMCs)) (UniProt P19785)
Assay: affinity purification with mass spectrometry; immunoprecipitation with an ERα antibody from CD11b+ BMCs of sham and OVX mice (6 weeks after OVX); SDS gel bands digested with trypsin, LC-MS/MS (LTQ-Orbitrap Velos), Mascot

binding: binds
B1: 17β-hydroxysteroid dehydrogenase type 7 (HSD17B7), endogenous in mouse CD11b+ bone marrow cells (enzyme, UniProt O88736 1-334)
chain: MRKVVLITGASSGIGLALCGRLLAEDDDLHLCLACRNLSKARAVRDTLLASHPSAEVSIVQMDVSSLQSVVRGAEEVKQKFQRLDYLYLNAGILPNPQFNLKAFFCGIFSRNVIHMFTTAEGILTQNDSVTADGLQEVFETNLFGHFILIRELEPLLCHADNPSQLIWTSSRNAKKANFSLEDIQHSKGPEPYSSSKYATDLLNVALNRNFNQKGLYSSVMCPGVVMTNMTYGILPPFIWTLLLPIMWLLRFFVNALTVTPYNGAEALVWLFHQKPESLNPLTKYASATSGFGTNYVTGQKMDIDEDTAEKFYEVLLELEKRVRTTVQKSDHPS

No constants are given. Whether binding was seen depends on the method and setting. Binding seen in cells or lysates may run through a third protein. Here binding means that the protein was enriched with, or labelled near, the bait; the list need not be complete.
